# Measurements reported in PubChem BioAssay AID493014 (National Center for Advancing Translational Sciences (NCATS), 2011).
# Screen size: about 340,000 compounds; about 170 (0.05%) were called active. The inconclusive results got no clear call from the source; some entries with a clear call stand among them for comparison. Calls come from the whole dose curve; as a rule, active = well fitted inhibition curve with a large enough effect in the signal ratio, with a control signal flat (not every such curve was filed as active); inconclusive = small, poorly fitted or top-dose-only effect, or effect the other way, or a change in a side signal; inactive = flat fitted curve, though single readings scatter; the % refers to the signal ratio. Potencies beside an inconclusive call are fits to weak or partial responses and may not hold up.
# Assay: qHTS Assay to Find Inhibitors of Chronic Active B-Cell Receptor Signaling;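 for activity change, negative = inhibition: plate controls were basal doxycycline-induced cells for no effect and cells given 10 µM MG132 for full effect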
# Details: ABC-DLBCL IkBa-CBG/CBR reporter, luminescence ratio (green luciferase fused to IkBa over red control in TMD8 lymphoma cells), 4 h; activity change, negative = inhibition: at 46.1 µM (top of the series)
# In short: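 Cell line TMD8 (human ABC DLBCL), stably expressing tet-inducible CBG68-IkBa fusion and CBR; IMDM/0.5% FBS; cpd up to 46 uM; dox induction, 4 h, 37C/5% CO2; dual luminescence; green/red ratio; MG132 control.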
# Potency is the fitted concentration of half-maximal effect.
Compound,"activity change, negative = inhibition",Potency
Clc1ccc2c(N/N=C/c3cccnc3)ccnc2c1,inconclusive: 0.166%,
CCOC(=O)CNS(=O)(=O)c1cc(-c2nnc(Nc3ccc4c(c3)OCO4)c3ccccc23)ccc1C,,"inconclusive: 18.4 µM [falling, partial curve]"
Clc1ccc(-c2cn3nc4c(nc3n2)CCCC4)cc1,,"inconclusive: 8.2 µM [falling, partial curve, poor fit]"
CCCNC(=O)c1cc(-c2ccco2)on1,,"inconclusive: 20.6 µM [falling, partial curve]"
COc1ccc(NC(=O)c2ccc(-c3csc(C)n3)cc2)cc1,inconclusive: 4.95%,
COc1ccc(N2C(=O)C(OC(C)=O)C2c2ccc(C)cc2)cc1 (centres undefined),inactive: 5.49%,
CCCCn1c(N)c(N(CCOC)C(=O)c2ccc(-c3ccc(C(C)=O)cc3)o2)c(=O)[nH]c1=O,inactive: -19.2%,
COc1ccc(C2=NN(CC(=O)NCCCN(C)c3ccccc3)C(=O)CC2)cc1,inactive: -29.2%,
COC(=O)c1ccc(/C=C(\C#N)C(=O)NC(C)c2ccccc2)cc1 (centres undefined),inactive: 9.23%,
COc1ccc(CNC(=O)CCC(=O)Nc2nnc(C(C)C)s2)cc1,,"inconclusive: 35.5 µM [falling, partial curve, poor fit]"
O=C(Oc1ccccc1C(=S)N1CCOCC1)c1ccccc1,inconclusive: 0.751%,
COc1cccc(-c2ccc(NC(=O)C3CCCN(Cc4cnc(N(C)C)s4)C3)cc2)c1 (centres undefined),,"inconclusive: 17.8 µM [falling, single point]"
CC(CCc1ccccc1)NC(=O)C(C)OC(=O)c1ccco1 (centres undefined),inconclusive: 3.83%,
O=C(COc1ccc2c(c1)oc(=O)c1ccccc12)N[C@@H](Cc1c[nH]c2ccccc12)C(=O)O,inactive: -10.5%,
COc1ccccc1NC(=O)Cc1coc2cc(C)ccc12,,"inconclusive: 0.82 µM [falling, full curve, poor fit]"
Cc1ccc(S(=O)(=O)CCC(=O)Oc2ccc(-c3nnco3)cc2)cc1,,"inconclusive: 14.6 µM [falling, partial curve, poor fit]"
CNC(=O)COC(=O)/C=C/c1nc2ccccc2s1,inconclusive: 21.1%,
Cc1cccc(OCc2nc(-c3cccnc3)no2)c1,inconclusive: -2.46%,
CCOC(=O)C1(C)/C(=N/Nc2ccccc2)C(=O)C(=O)N1c1ccccc1 (centres undefined),inactive: 11.1%,
O=C(Oc1cncc(Cl)c1)c1ccco1,inactive: -0.203%,

# A second format for 2 compounds above.
Compound	activity change, negative = inhibition	Potency
CCCNC(=O)c1cc(-c2ccco2)on1		inconclusive: 20.6 µM [falling, partial curve]
COc1ccc(NC(=O)c2ccc(-c3csc(C)n3)cc2)cc1	inconclusive: 4.95%	

# The listing continues:

Compound,"activity change, negative = inhibition",Potency
COc1ccc(C(=O)Nc2ccccc2C(=O)NC(Cc2ccc(O)cc2)C(=O)NNC(=O)c2ccccc2Cl)cc1 (centres undefined),,"inconclusive: 14.6 µM [falling, partial curve]"
COC(=O)c1sc(NC(=O)CSc2nnc(C(C)C)n2C)nc1C,inconclusive: 3.13%,
CCOC(=O)N1CCN(c2c(NCc3cccs3)c(=O)c2=O)CC1,,"inconclusive: 2.06 µM [rising, full curve, poor fit]"
COc1cc(NC(=O)c2cc([N+](=O)[O-])ccc2Br)ccc1NC(=O)c1ccco1,,"inconclusive: 4.11 µM [falling, partial curve]"
CC(C)(C)c1ccccc1OCC(=O)Nc1ncn[nH]1,inactive: -6.31%,
O=C(O)c1cccc(Cn2c(Cl)c(/C=N/NC(=O)c3ccccc3)sc2=O)c1,inconclusive: -24.1%,
CCOC(=O)Cc1csc(NC(=O)C(C)Oc2ccc3c(C)cc(=O)oc3c2)n1 (centres undefined),inactive: -8.84%,
COC(=O)c1ccc(/C=C/c2ccc3cccc(OC(C)=O)c3n2)cc1,inconclusive: 243%,
CCOc1ccc(NC(=S)N(CCc2c(C)[nH]c3ccc(C)cc23)Cc2ccco2)cc1,inactive: -5.39%,
COCc1c(C(=O)OC)nnn1-c1ccc(C(F)(F)F)cc1[N+](=O)[O-],inactive: -2.92%,
Cc1ccccc1Nc1c(-c2ccc(N3CCOCC3)cc2)nc2ncccn12,inactive: -10.4%,
CC(C)OC(=O)CSc1nc2ncccc2[nH]1,inactive: 5.01%,
COc1ccccc1OCCCOc1c(C)cc(C)cc1Br,inconclusive: 14%,
O=C(Nc1ncc(Cc2ccccc2Cl)s1)c1ccc([N+](=O)[O-])cc1,inactive: 1.52%,
CC1(NC(=O)CCc2nc3ccccc3c(=O)[nH]2)CCS(=O)(=O)C1 (centres undefined),inactive: 0.444%,
COc1ccc2[nH]c(C(=O)Nc3ccc(C)c(F)c3)cc2c1,inconclusive: -9.52%,
O=C(CSc1ncnc2scc(-c3ccccc3)c12)Nc1ccc(C(=O)O)cc1,,"inconclusive: 12.6 µM [falling, partial curve]"
CCOC(=O)C1(Cc2ccccc2C)CCCN(C(=O)CN2CCCCC2=O)C1 (centres undefined),inactive: -0.541%,
COC(=O)c1sc(N)c(C(=O)OC)c1COC(=O)C12CC3CC(CC(O)(C3)C1)C2,inconclusive: 2.53%,
